PMC11470999, “Penfluridol inhibits melanoma growth and metastasis through enhancing von Hippel‒Lindau tumor suppressor‐mediated cancerous inhibitor of protein phosphatase 2A (CIP2A) degradation” (MedComm, 2024)
No constants are given. Whether binding was seen depends on the method and setting. For part of these data: In cells and extracts the contact can be indirect. Some entries that bind do so weakly or less than the wild type.

Sequences of proteins named here, by UniProt entry; tags and fusion partners are left off.
UniProt P40338: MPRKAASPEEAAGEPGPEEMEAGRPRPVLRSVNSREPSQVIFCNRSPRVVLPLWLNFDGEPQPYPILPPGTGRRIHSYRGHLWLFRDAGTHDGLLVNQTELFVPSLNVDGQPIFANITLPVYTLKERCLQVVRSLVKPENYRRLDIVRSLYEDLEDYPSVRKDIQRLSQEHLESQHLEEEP

Key:
His-VHL = His-VHL (UniProt P40337); test: pull-down; His pull-down after incubating recombinant CIP2A (1-560), His-VHL and different concentrations of PF in vitro; Coomassie blue staining; both purified
[1] = target: cancerous inhibitor of protein phosphatase 2A (CIP2A), endogenous in B16 cells (mouse (endogenous in B16)) (UniProt Q8BWY9); test: pull-down; B16 and A375 cells treated with PF-Biotin; streptavidin-biotin pull-down; CIP2A and VHL detected by immunoblot
[2] = target: cancerous inhibitor of protein phosphatase 2A (CIP2A), endogenous in B16 cells (mouse (endogenous in B16)) (UniProt Q8BWY9); test: co-IP; immunoprecipitation with an anti-CIP2A antibody from B16 and A375 cells, untreated or treated with 5 µM PF for 24 h; VHL detected by immunoblot

Substance	binding (His-VHL)	binding [1]	binding [2]
recombinant CIP2A protein (1-560) (from UniProt Q8TCG1 1-560) (domain or fragment)	binds	–	–
von Hippel-Lindau tumor suppressor (VHL), endogenous in B16 cells (from UniProt P40338 1-181)	–	binds	binds
